Results as given in patent US20240368617A1, “NPR1 VARIANT TO ENHANCE PLANT RESISTANCE TO BIOTIC AND ABIOTIC STRESSES AND METHOD THEREOF” (Duke University, published 2024).
These are yes or no findings as the source states them, for the method shown. For part of these data: In cells and extracts the contact can be indirect. Some binding calls cover weakened binding; strength is not graded here. For part of these data: Tags and fused reporters may be left off the sequences shown. Each block holds one molecule with its values, some of them ahead of it.

Experiments:
[1] = target: T1, TGA3-mRFP (Arabidopsis thaliana) (UniProt Q39234); assay: co-immunoprecipitation with anti-RFP beads, transient co-expression in N. benthamiana; WT interaction is the reference that the mutants lose
T1 sequence (looked up): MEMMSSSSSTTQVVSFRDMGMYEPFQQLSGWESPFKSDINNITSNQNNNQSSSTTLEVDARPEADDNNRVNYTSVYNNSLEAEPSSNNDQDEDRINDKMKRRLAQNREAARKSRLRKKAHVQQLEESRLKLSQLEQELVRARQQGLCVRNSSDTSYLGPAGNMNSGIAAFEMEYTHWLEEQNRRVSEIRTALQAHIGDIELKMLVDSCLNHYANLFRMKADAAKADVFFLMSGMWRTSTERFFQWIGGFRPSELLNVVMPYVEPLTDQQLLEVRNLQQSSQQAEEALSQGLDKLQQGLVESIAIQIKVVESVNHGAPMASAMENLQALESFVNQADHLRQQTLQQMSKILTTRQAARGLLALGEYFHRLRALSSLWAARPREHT

[2] = target: T2, Myc-tagged CUL3A (Myc-CUL3) (UniProt Q9ZVH4); assay: GST pull-down from E. coli lysate after co-expression
T2 sequence (looked up): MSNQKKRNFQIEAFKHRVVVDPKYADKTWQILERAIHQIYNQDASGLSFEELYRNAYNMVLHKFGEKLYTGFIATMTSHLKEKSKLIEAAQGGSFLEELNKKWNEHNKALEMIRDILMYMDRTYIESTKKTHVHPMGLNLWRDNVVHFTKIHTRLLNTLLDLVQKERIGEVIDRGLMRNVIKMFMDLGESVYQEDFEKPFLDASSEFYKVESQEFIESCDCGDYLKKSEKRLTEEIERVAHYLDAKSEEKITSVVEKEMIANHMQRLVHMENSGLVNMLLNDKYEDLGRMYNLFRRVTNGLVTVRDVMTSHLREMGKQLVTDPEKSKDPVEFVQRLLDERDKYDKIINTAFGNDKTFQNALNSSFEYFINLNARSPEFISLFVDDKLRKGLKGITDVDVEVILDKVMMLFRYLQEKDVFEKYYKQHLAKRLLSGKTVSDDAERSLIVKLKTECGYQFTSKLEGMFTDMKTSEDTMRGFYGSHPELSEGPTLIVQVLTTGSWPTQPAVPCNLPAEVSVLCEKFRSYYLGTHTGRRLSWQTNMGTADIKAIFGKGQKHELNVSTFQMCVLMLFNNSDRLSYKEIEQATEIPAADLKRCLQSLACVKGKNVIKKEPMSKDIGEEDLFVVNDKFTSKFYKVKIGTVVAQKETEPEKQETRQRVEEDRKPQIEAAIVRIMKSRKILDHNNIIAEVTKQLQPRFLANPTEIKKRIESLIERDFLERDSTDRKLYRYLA

[3] = target: npr1(C82A), purified recombinant protein (Arabidopsis thaliana) (UniProt P93002); assay: size-exclusion chromatography on Superose 6 Increase; self-association
[4] = target: T1, TGA3-mRFP (Arabidopsis thaliana); assay: co-immunoprecipitation, transient co-expression in N. benthamiana
[5] = target: T2, Myc-tagged CUL3A (Myc-CUL3); assay: GST pull-down from E. coli lysate after co-expression; WT interaction is the reference
[6] = target: T3, Full-length Arabidopsis thaliana NPR1 with C-terminal Strep tag, expressed in insect cells (NPR1-Strep) (Arabidopsis thaliana), P93002; assay: BS3 cross-linking and SDS-PAGE; self-association; conditions: remark: other sources report otherwise
T3 chain: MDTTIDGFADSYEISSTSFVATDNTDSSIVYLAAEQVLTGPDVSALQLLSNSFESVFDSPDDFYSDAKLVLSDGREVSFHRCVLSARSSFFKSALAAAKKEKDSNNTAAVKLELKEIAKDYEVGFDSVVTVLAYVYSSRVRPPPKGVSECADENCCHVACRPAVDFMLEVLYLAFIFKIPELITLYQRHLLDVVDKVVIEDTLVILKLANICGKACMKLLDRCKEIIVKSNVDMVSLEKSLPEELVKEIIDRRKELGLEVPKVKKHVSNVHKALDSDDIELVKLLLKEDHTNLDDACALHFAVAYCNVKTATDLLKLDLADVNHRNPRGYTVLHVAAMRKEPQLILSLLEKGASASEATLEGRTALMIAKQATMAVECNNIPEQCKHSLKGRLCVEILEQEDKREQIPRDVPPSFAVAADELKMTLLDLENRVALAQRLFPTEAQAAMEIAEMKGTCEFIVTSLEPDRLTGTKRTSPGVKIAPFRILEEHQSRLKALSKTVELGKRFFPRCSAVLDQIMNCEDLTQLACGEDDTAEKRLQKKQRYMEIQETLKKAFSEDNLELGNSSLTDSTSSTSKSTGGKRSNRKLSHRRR

[7] = target: T3, Full-length Arabidopsis thaliana NPR1 …; assay: cryo-EM; homodimer; conditions: remark: other sources report otherwise

binding [1]: binds
Molecule: HA-tagged Arabidopsis NPR1 (NPR1-HA) (from UniProt P93002 1-593)

binding [2]: binds
Molecule: GST-fused NPR1 deltaBHB deletion mutant (deletion of E200-L258) (from UniProt P93002 1-593)

binding [3]: binds
Molecule: npr1(C82A), purified recombinant protein (from UniProt P93002 1-593)

binding [4]: binds
Molecule: npr1(Q400C/E401L/R506C)-HA (from UniProt P93002 1-593)

binding [5]: binds
Molecule: GST-fused WT NPR1 (GST-NPR1) (from UniProt P93002 1-593)

binding [4]: binds
Molecule: npr1(L393D)-HA (from UniProt P93002 1-593)

binding [4]: binds
Molecule: npr1(L346D)-HA (from UniProt P93002 1-593)

binding [6]: binds
binding [7]: binds
B1: Full-length Arabidopsis thaliana NPR1 with C-terminal Strep tag, expressed in insect cells (NPR1-Strep), P93002 1-593 (protein, not shown: small tags and cut ends)
chain: MDTTIDGFADSYEISSTSFVATDNTDSSIVYLAAEQVLTGPDVSALQLLSNSFESVFDSPDDFYSDAKLVLSDGREVSFHRCVLSARSSFFKSALAAAKKEKDSNNTAAVKLELKEIAKDYEVGFDSVVTVLAYVYSSRVRPPPKGVSECADENCCHVACRPAVDFMLEVLYLAFIFKIPELITLYQRHLLDVVDKVVIEDTLVILKLANICGKACMKLLDRCKEIIVKSNVDMVSLEKSLPEELVKEIIDRRKELGLEVPKVKKHVSNVHKALDSDDIELVKLLLKEDHTNLDDACALHFAVAYCNVKTATDLLKLDLADVNHRNPRGYTVLHVAAMRKEPQLILSLLEKGASASEATLEGRTALMIAKQATMAVECNNIPEQCKHSLKGRLCVEILEQEDKREQIPRDVPPSFAVAADELKMTLLDLENRVALAQRLFPTEAQAAMEIAEMKGTCEFIVTSLEPDRLTGTKRTSPGVKIAPFRILEEHQSRLKALSKTVELGKRFFPRCSAVLDQIMNCEDLTQLACGEDDTAEKRLQKKQRYMEIQETLKKAFSEDNLELGNSSLTDSTSSTSKSTGGKRSNRKLSHRRR
